Experimental findings from PMC11251186, “Higher-order structure and proteoforms of co-occurring C4b-binding protein assemblies in human serum” (The EMBO Journal, 2024) are described below.

Assay [1] deals with T1, vitamin K-dependent protein S (ProS) (human), P07225.
T1 chain: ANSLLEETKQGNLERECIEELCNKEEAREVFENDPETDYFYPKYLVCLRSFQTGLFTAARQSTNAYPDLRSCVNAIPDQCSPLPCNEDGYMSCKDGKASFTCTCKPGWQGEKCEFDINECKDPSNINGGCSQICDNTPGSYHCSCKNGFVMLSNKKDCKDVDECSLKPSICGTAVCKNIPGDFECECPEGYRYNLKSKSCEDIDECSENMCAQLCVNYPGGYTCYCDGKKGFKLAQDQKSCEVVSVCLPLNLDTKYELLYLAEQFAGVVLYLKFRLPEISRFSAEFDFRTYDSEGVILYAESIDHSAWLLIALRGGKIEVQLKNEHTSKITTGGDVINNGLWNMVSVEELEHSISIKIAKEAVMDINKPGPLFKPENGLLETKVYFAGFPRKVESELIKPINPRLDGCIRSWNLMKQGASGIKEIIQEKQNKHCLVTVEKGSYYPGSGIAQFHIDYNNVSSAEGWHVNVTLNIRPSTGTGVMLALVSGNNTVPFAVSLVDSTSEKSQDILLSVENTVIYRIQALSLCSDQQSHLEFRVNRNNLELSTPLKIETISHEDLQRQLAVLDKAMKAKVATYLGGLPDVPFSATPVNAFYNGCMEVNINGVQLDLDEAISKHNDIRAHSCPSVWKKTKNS
Put plainly: mass photometry; native C4BP, 16 nM in PBS pH 7.4; both purified. Conditions: remark: other sources report otherwise.

In assay [2] the target is T1, vitamin K-dependent protein S (ProS) …. As to the kind of experiment: SEC; SEC LC-MS of pooled healthy donor serum in triplicate (dataset of Doorduijn et al, 2022, examined here); iBAQ of each chain per fraction. The settings on record: remark: other sources report otherwise. A general note: In gel filtration, larger molecules generally elute earlier.
For assay [3], the target named is T2, vitamin K-dependent protein S (ProS) (human, UniProt P07225 42-676, N-glycans at N499, N509, N530).
T2 construct: vitamin K-dependent protein S (ProS), human serum protein; GLA domain, four EGF-like domains (E1-E4), two laminin G-like domains (LG1-2); without signal peptide and propeptide; source: purified from pooled plasma of more than 16 healthy donors together with C4BP (bought: Complement Technology, Inc); endogenous, pooled healthy donor serum (SEC LC-MS)
T2 sequence (looked up): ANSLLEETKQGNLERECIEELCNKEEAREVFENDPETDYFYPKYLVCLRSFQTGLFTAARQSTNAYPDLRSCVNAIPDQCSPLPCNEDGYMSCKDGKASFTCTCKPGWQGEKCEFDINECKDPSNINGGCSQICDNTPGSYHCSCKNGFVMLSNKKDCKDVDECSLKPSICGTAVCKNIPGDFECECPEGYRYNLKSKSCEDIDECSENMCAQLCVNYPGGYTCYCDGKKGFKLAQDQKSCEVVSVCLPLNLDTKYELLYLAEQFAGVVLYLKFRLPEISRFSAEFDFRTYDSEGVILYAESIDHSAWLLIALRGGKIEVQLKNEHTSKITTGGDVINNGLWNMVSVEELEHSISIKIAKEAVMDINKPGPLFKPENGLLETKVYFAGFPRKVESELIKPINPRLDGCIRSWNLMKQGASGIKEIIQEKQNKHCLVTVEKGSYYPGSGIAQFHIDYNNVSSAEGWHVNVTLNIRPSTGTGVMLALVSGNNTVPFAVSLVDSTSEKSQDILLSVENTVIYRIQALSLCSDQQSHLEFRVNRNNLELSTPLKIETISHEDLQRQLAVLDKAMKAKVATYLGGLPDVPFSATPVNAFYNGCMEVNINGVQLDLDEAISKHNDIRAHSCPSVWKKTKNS
Put plainly: mass photometry; acidified (denatured) C4BP, 16 nM in PBS adjusted to pH 2 with formic acid; both purified.

In assay [4] the target is T2, vitamin K-dependent protein S (ProS). Put plainly: native MS; Orbitrap charge detection MS (CDMS) of acidified (denatured) C4BP, formic acid added (pH ~2); disulfide bonds preserved; both purified.

Results are given in words; binding and its absence hold for the method and conditions named.

B1: vitamin K-dependent protein S (ProS), P07225 42-676 (protein)
chain: ANSLLEETKQGNLERECIEELCNKEEAREVFENDPETDYFYPKYLVCLRSFQTGLFTAARQSTNAYPDLRSCVNAIPDQCSPLPCNEDGYMSCKDGKASFTCTCKPGWQGEKCEFDINECKDPSNINGGCSQICDNTPGSYHCSCKNGFVMLSNKKDCKDVDECSLKPSICGTAVCKNIPGDFECECPEGYRYNLKSKSCEDIDECSENMCAQLCVNYPGGYTCYCDGKKGFKLAQDQKSCEVVSVCLPLNLDTKYELLYLAEQFAGVVLYLKFRLPEISRFSAEFDFRTYDSEGVILYAESIDHSAWLLIALRGGKIEVQLKNEHTSKITTGGDVINNGLWNMVSVEELEHSISIKIAKEAVMDINKPGPLFKPENGLLETKVYFAGFPRKVESELIKPINPRLDGCIRSWNLMKQGASGIKEIIQEKQNKHCLVTVEKGSYYPGSGIAQFHIDYNNVSSAEGWHVNVTLNIRPSTGTGVMLALVSGNNTVPFAVSLVDSTSEKSQDILLSVENTVIYRIQALSLCSDQQSHLEFRVNRNNLELSTPLKIETISHEDLQRQLAVLDKAMKAKVATYLGGLPDVPFSATPVNAFYNGCMEVNINGVQLDLDEAISKHNDIRAHSCPSVWKKTKNS
modifications: here or on the partner: N-glycans at N499, N509, N530; N-glycans at N499, N509, N530
For B1, the binding result in assay [1] and in assay [2] was “no binding” throughout.

B2: vitamin K-dependent protein S (ProS) (protein)
chain: ANSLLEETKQGNLERECIEELCNKEEAREVFENDPETDYFYPKYLVCLRSFQTGLFTAARQSTNAYPDLRSCVNAIPDQCSPLPCNEDGYMSCKDGKASFTCTCKPGWQGEKCEFDINECKDPSNINGGCSQICDNTPGSYHCSCKNGFVMLSNKKDCKDVDECSLKPSICGTAVCKNIPGDFECECPEGYRYNLKSKSCEDIDECSENMCAQLCVNYPGGYTCYCDGKKGFKLAQDQKSCEVVSVCLPLNLDTKYELLYLAEQFAGVVLYLKFRLPEISRFSAEFDFRTYDSEGVILYAESIDHSAWLLIALRGGKIEVQLKNEHTSKITTGGDVINNGLWNMVSVEELEHSISIKIAKEAVMDINKPGPLFKPENGLLETKVYFAGFPRKVESELIKPINPRLDGCIRSWNLMKQGASGIKEIIQEKQNKHCLVTVEKGSYYPGSGIAQFHIDYNNVSSAEGWHVNVTLNIRPSTGTGVMLALVSGNNTVPFAVSLVDSTSEKSQDILLSVENTVIYRIQALSLCSDQQSHLEFRVNRNNLELSTPLKIETISHEDLQRQLAVLDKAMKAKVATYLGGLPDVPFSATPVNAFYNGCMEVNINGVQLDLDEAISKHNDIRAHSCPSVWKKTKNS
modifications: N-glycans at N499, N509, N530
On to B2, for which the binding entry in assay [3] is on record as “no binding (condition: acidified with formic acid (pH 2))”; in assay [4], “no binding (condition: acidified with formic acid (pH ~2))”.
